# From PubChem BioAssay AID540276 (National Center for Advancing Translational Sciences (NCATS), 2011)
# Among all 300,000 compounds or so, about 5,400 (1.8%) were called active. The inconclusive results got no clear call from the source; some entries with a clear call stand among them for comparison. Calls follow the shape of the full dose curve; tested in HEK293 cells. Where the call is inconclusive, the potency comes from a doubtful curve fit.
# Assay: qHTS for inhibitors of binding or entry into cells for Marburg Virus
# Details: Marburg virus pseudotyped entry inhibition, cell reporter; series mostly up to 37.8 µM
# Potency is read from the fitted curve at half-maximal effect.
row,Structure (SMILES),Potency
1,CC(Oc1ccc(Cl)cc1)C(=O)NCCN1C(=O)S/C(=C\c2cccnc2)C1=O (stereo not drawn),"inconclusive: 35.5 µM [inhibitor, single point]"
2,O=C1c2ccccc2CCC12N=NCC2c1ccc(Br)cc1 (stereo not drawn),inactive
3,Cc1ccc(O)c(-c2cc(-c3cccc(Br)c3)n[nH]2)c1,"inconclusive: 10 µM [inhibitor, partial curve, poor fit]"
4,Cc1ccc(NC(=O)CC2C(=O)N(Cc3ccccc3)C(=S)N2NC(=O)c2cccc(F)c2)c(C)c1 (stereo not drawn),"inconclusive: 11.2 µM [inhibitor, single point]"
5,CN(C(=O)CCN1C(=O)/C(=C/c2ccccc2F)SC1=S)C1CCS(=O)(=O)C1 (stereo not drawn),"inconclusive: 11.2 µM [inhibitor, single point]"
6,COc1cc(/C=C2\SC(=S)N(CCC(=O)N3CCN(C)CC3)C2=O)cc(OC)c1OC,"inconclusive: 8.91 µM [inhibitor, partial curve, poor fit]"
7,O=C(CCC1CCCN(C(=O)c2ccc3c(c2)OCCO3)C1)NCc1ccccc1F (stereo not drawn),"inconclusive: 10 µM [activator, partial curve, poor fit]"
8,CCc1ccc(NC(=O)CNS(=O)(=O)c2c(C)noc2C)cc1,"inconclusive: 35.5 µM [activator, single point]"
9,O=C(Nc1ccc2ccccc2c1)Nc1ccc2snnc2c1,"inconclusive: 11.2 µM [inhibitor, partial curve, poor fit]"
10,CCOC(=O)N1CCN(C(=O)C2CCN(S(=O)(=O)c3c(C)cc(C)cc3C)CC2)CC1,inactive
11,Cc1cc(OCC(=O)Nc2ccc(N3CCCC3)cc2)cc(C)c1Cl,inactive
12,O=S(=O)(NCCSc1ccccn1)c1ccc(Cl)cc1,"inconclusive: 7.31 µM [inhibitor, single point]"
13,Cc1cc(C)c2nc(-c3ccco3)cc(C(=O)O)c2c1,"inconclusive: 10 µM [activator, partial curve, poor fit]"
14,COc1ccc(NC(=O)c2cc(-c3ccco3)on2)c(OC)c1,inactive
15,Cc1ccc(-c2nc3ncccc3o2)cc1NC(=O)COc1ccc(C(C)C)cc1,"inconclusive: 10 µM [inhibitor, partial curve, poor fit]"
16,CN1CCCN(C(=O)/C=C/c2ccc(F)cc2)CC1,"inconclusive: 14.1 µM [activator, partial curve, poor fit]"
17,Fc1ccc(NC(=S)NCc2cccs2)cc1,"inconclusive: 7.08 µM [inhibitor, full curve]"
18,COc1cccc(C(=O)NCCS(=O)(=O)NCc2cccnc2)c1,"inconclusive: 4.47 µM [inhibitor, single point]"

# A second format for part of the listing above:
row	Structure (SMILES)	Potency
3	Cc1ccc(O)c(-c2cc(-c3cccc(Br)c3)n[nH]2)c1	inconclusive: 10 µM [inhibitor, partial curve, poor fit]
10	CCOC(=O)N1CCN(C(=O)C2CCN(S(=O)(=O)c3c(C)cc(C)cc3C)CC2)CC1	inactive
11	Cc1cc(OCC(=O)Nc2ccc(N3CCCC3)cc2)cc(C)c1Cl	inactive
